{"sequences": {"note": "Protein sequences, listed by entry. Tags and fused reporters are not part of them.", "UniProt P18054, whole entry, looked up": "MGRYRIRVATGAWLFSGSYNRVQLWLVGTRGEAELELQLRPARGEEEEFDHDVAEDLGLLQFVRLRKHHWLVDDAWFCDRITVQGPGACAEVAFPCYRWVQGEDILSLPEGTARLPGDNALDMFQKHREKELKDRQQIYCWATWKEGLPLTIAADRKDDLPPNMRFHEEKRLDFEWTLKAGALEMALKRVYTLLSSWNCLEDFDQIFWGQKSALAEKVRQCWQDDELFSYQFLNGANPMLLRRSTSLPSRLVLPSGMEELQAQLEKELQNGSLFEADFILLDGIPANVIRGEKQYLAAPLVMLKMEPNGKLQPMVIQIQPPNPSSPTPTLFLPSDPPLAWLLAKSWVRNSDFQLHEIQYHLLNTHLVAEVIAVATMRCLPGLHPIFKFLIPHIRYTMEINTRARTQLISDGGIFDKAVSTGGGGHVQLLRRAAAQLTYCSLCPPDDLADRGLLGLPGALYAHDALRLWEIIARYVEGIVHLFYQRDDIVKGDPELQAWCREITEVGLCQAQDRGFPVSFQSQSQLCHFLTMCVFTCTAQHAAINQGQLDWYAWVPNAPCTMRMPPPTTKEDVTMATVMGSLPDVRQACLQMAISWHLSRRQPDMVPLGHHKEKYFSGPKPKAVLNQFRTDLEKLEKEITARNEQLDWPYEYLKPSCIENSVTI"}, "source": "PubChem BioAssay AID1671190", "about": "(National Center for Advancing Translational Sciences (NCATS), 2021)", "note": "Several values for one entry are separate records, joined by “and”; a condition that tells them apart may be missing. Equal values may be shown once. In all, about 580,000 compounds went through this assay and about 6,100 (1.1%) were called active. Inconclusive results, whose numbers are uncertain, are shown with a selection of clear calls. Calls come from the whole dose curve; as a rule, active = well fitted inhibition curve with a large enough effect; inconclusive = small, poorly fitted or top-dose-only effect, or another doubt; inactive = no such curve, though single readings can be large or run the other way. Potencies of inconclusive entries are doubtful fits and often do not repeat. % is set by controls: 0 for no effect and ±100 for the full control effect; potency is the fitted concentration of half-maximal effect."}
{"target": "Polyunsaturated fatty acid lipoxygenase ALOX12 (Homo sapiens) (UniProt P18054)", "assay": "Primary qHTS assay for inhibitors of human arachidonate 12S-lipoxygenase (ALOX12): Round 2", "details": "purified 12hLO, xylenol orange hydroperoxide absorbance; activity change, negative = inhibition: at 108 µM (top of the series) unless noted", "procedure,_shortened": "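Purified human 12hLO (150 nM final) in 25 mM Hepes, 0.01% Triton X-100, pH 7.0 was preincubated 15 min at room temperature with compound. Then 40 uM arachidonic acid was added, 30 min. Hydroperoxide was read by Fe-XO absorbance ratio 573/405 nm.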"}
{"smiles": "CN(Cc1ccco1)c1ncnc2ccc(-c3cccc(NS(C)(=O)=O)c3)cc12", "Potency": "inconclusive: 10 µM [inhibitor, full curve, poor fit]"}
{"smiles": "CCOC(=O)C(=O)Nc1c(C(=O)Nc2ccc(C)cc2)oc2ccccc12", "activity change, negative = inhibition": "inactive: -26%"}
{"smiles": "COc1ccc(C(=O)N(Cc2cc3cccc(C)c3[nH]c2=O)c2ccccc2)cc1", "Potency": "inconclusive: 35.5 µM [inhibitor, single point]"}
{"smiles": "Cc1ccccc1NC(=O)c1n[nH]c(=O)c2ccccc12", "Potency": "inconclusive: 3.55 µM [inhibitor, full curve, poor fit]"}
{"smiles": "O=C(CNC(=S)NC(=O)c1cccs1)c1ccccc1", "Potency": "inconclusive: 126 µM [inhibitor, partial curve, poor fit]"}
{"smiles": "COc1ccc2c(c1)C=C(CN1CCC(CO)(Cc3ccccc3Cl)CC1)CO2", "Potency": "inconclusive: 44.7 µM [inhibitor, partial curve]"}
{"smiles": "CCOC(=O)C1=NN(c2ccccc2)C(c2ccccc2)CC1=O", "note": "(stereo unspecified)", "Potency": "inconclusive: 44.7 µM [inhibitor, partial curve, poor fit]"}
{"smiles": "Cc1cccc(OCC(=O)Nc2nc3c(s2)CC(C(C)(C)C)CC3)c1C", "note": "(stereo unspecified)", "Potency": "inconclusive: 100 µM [inhibitor, partial curve, poor fit]"}
{"smiles": "Cc1ccc(C(=O)OCC(=O)N(C)c2ccccc2)cc1F", "activity change, negative = inhibition": "inactive: 24.9%"}
{"smiles": "CC(C)(C)c1csc(NC(=O)Cn2cnc3ccccc3c2=O)n1", "activity change, negative = inhibition": "inactive: -49.7%"}
{"smiles": "CCN(CC)c1ccc(NC(=O)c2cnc3c(-c4ccccc4)c(C)nn3c2C)c(C)c1", "Potency": "inconclusive: 20 µM [inhibitor, partial curve, poor fit]"}
{"smiles": "O=C(NCCCNC(=O)c1cc2ccccc2[nH]1)c1ccc(F)cc1", "activity change, negative = inhibition": "inactive: 2.62%"}
{"smiles": "CCCN1Cc2cccc(C(=O)NCc3cccs3)c2C1=O", "Potency": "inconclusive: 112 µM [inhibitor, single point]"}
{"smiles": "COCCN1CCOC[C@H]2CCN(C(=O)c3ccco3)C[C@H]21", "activity change, negative = inhibition": "inactive: 37.4%"}
{"smiles": "O=C(Nc1nnc(Cc2ccccc2)s1)C1CCN(C(=O)c2ccco2)CC1", "Potency": "inconclusive: 44.7 µM [inhibitor, partial curve, poor fit]"}
{"smiles": "CCOC(=O)c1cc2c(=O)n3ccccc3nc2n(C(C)C)c1=NC(=O)c1cc2ccccc2o1", "Potency": "inconclusive: 15.8 µM [inhibitor, partial curve, poor fit]"}
{"smiles": "Cc1ccc(NC(=O)Nc2cnccn2)cc1", "activity change, negative = inhibition": "inactive: 7.75%"}
{"smiles": "Cc1ccccc1NC(=O)CNc1nc(Nc2ccccc2)nc(Nc2ccccc2)n1", "Potency": "active: 15.8 µM"}
{"smiles": "COc1cc(-c2cc(NC(C)=O)c3ncc(-c4ccccc4)n3c2)cc(OC)c1OC", "Potency": "inconclusive: 50.1 µM [inhibitor, partial curve, poor fit]"}
{"smiles": "c1ccc2c(c1)nnn2Cc1nnc2sc(-c3ccc4c(c3)OCCO4)nn12", "Potency": "inconclusive: 22.4 µM [inhibitor, partial curve]"}
{"smiles": "CCc1cc(=O)oc2cc(C)c(CN3CCCC3)c(O)c12", "Potency": "inconclusive: 2.24 µM [inhibitor, partial curve, poor fit]"}
{"smiles": "CCc1ccc(N2CC(c3noc(-c4ccc(OC)nc4)n3)CC2=O)cc1", "note": "(stereo unspecified)", "activity change, negative = inhibition": "inactive: 16%"}
{"smiles": "CCc1ccc(C(=O)c2cn(CC(=O)NC3CCCCC3)c3nc(C)ccc3c2=O)cc1", "Potency": "inconclusive: 141 µM [inhibitor, single point]"}
{"smiles": "COc1ccc(-n2nc(C(=O)N3CCCC(C)C3)c3c4ccccc4n(C)c3c2=O)cc1", "note": "(stereo unspecified)", "Potency": "inconclusive: 126 µM [inhibitor, partial curve, poor fit]"}
{"smiles": "Cc1cccnc1NC(=S)NCCc1ccccc1", "Potency": "active: 7.08 µM"}
{"smiles": "O=C(Nc1ccc(F)c(F)c1)c1cc(S(=O)(=O)NC2CCCCCC2)ccc1F", "Potency": "inconclusive: 126 µM [inhibitor, partial curve, poor fit]"}
{"smiles": "Cn1c2ccccc2c2c(C(=O)N3CCN(c4ccccn4)CC3)cn(C3CCCC3)c(=O)c21", "activity change, negative = inhibition": "inactive: 0% [at 57.4 µM]"}
{"smiles": "COc1ccc(-c2cc(C(F)(F)F)nc(S(C)(=O)=O)n2)cc1", "Potency": "inactive and inconclusive: 141 µM [inhibitor, partial curve, poor fit]"}
{"smiles": "COCC(O)CNC(=O)c1cc(-c2ccc(OC)cc2)nc2ccccc12", "note": "(stereo unspecified)", "Potency": "inconclusive: 50.1 µM [inhibitor, partial curve, poor fit]"}
{"smiles": "COc1ccc(/C=C/CN2CCN(Cc3ccc(F)cc3)C(CCO)C2)cc1", "note": "(stereo unspecified)", "activity change, negative = inhibition": "inactive: -1.77%"}
{"smiles": "CCOc1ccc(N2CC(NC(=O)/C=C\\c3ccc4c(c3)OCO4)CC2=O)cc1", "note": "(stereo unspecified)", "Potency": "inconclusive: 100 µM [inhibitor, partial curve, poor fit]"}
{"smiles": "O=C(Cc1ccc2c(c1)CCC2)Nc1nc2ccc(F)cc2s1", "Potency": "inconclusive: 3.55 µM [inhibitor, full curve, poor fit]"}
{"smiles": "O=S(=O)(Nc1ccc2oc(-c3ccc(I)cc3)nc2c1)c1ccccc1", "Potency": "inconclusive: 15.8 µM [inhibitor, partial curve, poor fit]"}
{"smiles": "Cc1ccc(Nc2nc(-c3cnc(N4CCN(C)CC4)nc3C)cc(=O)[nH]2)cc1", "Potency": "inconclusive: 11.2 µM [inhibitor, full curve]"}
{"smiles": "Cc1cc(NC(=O)CCCN2C(=O)c3cccnc3C2=O)no1", "activity change, negative = inhibition": "inactive: -9.88%"}
{"smiles": "CCOc1ccc(/C(O)=C2\\C(=O)C(=O)N(c3nccs3)C2c2ccc(C)cc2)cc1", "note": "(stereo unspecified)", "Potency": "active: 6.31 µM"}
{"smiles": "Cc1ccccc1C(=O)Nc1scc(-c2ccc(Br)cc2)c1C(=O)O", "Potency": "inconclusive: 35.5 µM [inhibitor, partial curve, poor fit]"}
{"smiles": "CCN(C(=O)c1cc([N+](=O)[O-])ccc1NCc1cccnc1)c1ccccc1", "Potency": "inconclusive: 112 µM [inhibitor, single point]"}
{"smiles": "O=S(=O)(Nc1cc(F)ccc1F)c1ccc2[nH]c3c(c2c1)CCCC3", "Potency": "inconclusive: 50.1 µM [inhibitor, partial curve, poor fit]"}
{"smiles": "CCn1c(CCc2ccc(NC(=O)c3ccc(C#N)cc3)cc2)nc2ccccc21", "Potency": "inconclusive: 100 µM [inhibitor, single point]"}
{"smiles": "O=C(Nc1ccccc1Cl)Nc1ccnn1C1CCN(C(=O)c2cscn2)CC1", "Potency": "inconclusive: 2.82 µM [inhibitor, full curve, poor fit]"}
{"smiles": "N#Cc1ccccc1NC(=O)CNc1ccccc1N1CCCCC1", "activity change, negative = inhibition": "inactive: 0%"}
{"smiles": "CCOc1cc(-c2noc(N)c2C#N)cc(OCC)c1OCC", "activity change, negative = inhibition": "inactive: -18.6%"}
{"smiles": "O=C1OCCOC2CCCc3oc(C4=CCCCC4)c1c32", "note": "(stereo unspecified)", "Potency": "inconclusive: 28.2 µM [inhibitor, full curve, poor fit]"}
{"smiles": "CCOc1ccc(CCN2C(=O)C(=O)N([C@@H](Cc3ccccc3)CN3CCC[C@H]3CN3C(=O)C(=O)NC[C@@H]3Cc3ccc(O)cc3)C[C@@H]2Cc2ccc(O)cc2)cc1", "Potency": "inconclusive: 56.2 µM [inhibitor, partial curve, poor fit]"}
{"smiles": "C=CCN(c1ccc(C(=O)Nc2cccc([N+](=O)[O-])c2)cc1)S(C)(=O)=O", "activity change, negative = inhibition": "inactive: 1.55%"}
{"smiles": "CCC(=O)Nc1ccc(C2(C(=O)NCC(C)C)CCCCC2)cc1", "activity change, negative = inhibition": "inactive: 0.577%"}
{"smiles": "CCCCc1ccc(OC(=O)c2ccc(O)cc2)cc1", "Potency": "inconclusive: 100 µM [inhibitor, partial curve, poor fit]"}
{"smiles": "COC(=O)C1=C(C)N(c2cccc(C)c2)C(=S)NC1c1ccc(C)s1", "note": "(stereo unspecified)", "Potency": "active: 35.5 µM"}
{"smiles": "O=C(NCCCN1CCOCC1)c1ccc(CSc2ccc(Cl)cc2)cc1", "Potency": "inconclusive: 89.1 µM [inhibitor, partial curve, poor fit]"}
{"smiles": "CC(N)c1ccc(O)cc1", "note": "(stereo unspecified)", "activity change, negative = inhibition": "inactive: -58.9%"}
{"smiles": "O=[N+]([O-])c1cccnc1N1CCN(Cc2ccc3c(c2)OCO3)CC1", "activity change, negative = inhibition": "inactive: -31.4%"}
{"smiles": "CC1=NN(c2ccc(C)c(C)c2)C(=O)C1C(c1cccc(O)c1)C1C(=O)N(c2ccc(C)c(C)c2)N=C1C", "note": "(stereo unspecified)", "Potency": "inconclusive: 50.1 µM [inhibitor, partial curve, poor fit]"}
{"smiles": "CCN(CC)CCNC(=O)c1ccc(CSc2nc3ccncc3n2Cc2cccc(F)c2)cc1", "Potency": "inconclusive: 89.1 µM [inhibitor, partial curve, poor fit]"}
{"smiles": "O=C(CCc1nnn2c1CN(C(=O)Nc1ccccc1)CC2)N1CCOCC1", "activity change, negative = inhibition": "inactive: 25.1%"}
{"smiles": "CSc1n[nH]c(NC(C)=O)n1", "Potency": "inconclusive: 39.8 µM [inhibitor, partial curve, poor fit]"}
{"smiles": "CCCCN(CC)CCCNC(=O)Cn1ncc2c3ccccc3n(Cc3ccccc3F)c2c1=O", "Potency": "inconclusive: 14.1 µM [inhibitor, full curve]"}
{"smiles": "O=C(O)C(Cc1ccc(Cl)cc1)Sc1nc2ccccc2[nH]1", "note": "(stereo unspecified)", "Potency": "inconclusive: 89.1 µM [inhibitor, single point]"}
{"smiles": "COc1ccc(C(=O)N2N=C(c3ccc(NS(C)(=O)=O)cc3)CC2c2cccs2)cc1", "note": "(stereo unspecified)", "Potency": "inconclusive: 141 µM [inhibitor, partial curve, poor fit]"}
{"smiles": "COc1ccc(CN2CCN(Cc3ccccc3C(F)(F)F)CC2)c(OC)c1", "Potency": "inconclusive: 3.16 µM [inhibitor, full curve, poor fit]"}
{"smiles": "CCOC(=O)c1[nH]c2cc(OC)c(OC)cc2c1NC(=O)CN(C)C1CCCCC1", "activity change, negative = inhibition": "inactive: -0.426%"}
{"smiles": "Cn1c(C(=O)NCC2CC2)nc2nc(-c3ccccc3)c(Cl)cc21", "activity change, negative = inhibition": "inactive: -15.9% [at 176 µM]"}
{"smiles": "COc1cc(/C=C/C(=O)c2ccc(OCC#N)cc2)ccc1OCCC(C)C", "Potency": "inconclusive: 2.24 µM [inhibitor, full curve, poor fit]"}
{"smiles": "Cc1ccc2nc(/C(C#N)=C/c3ccco3)[nH]c2c1", "Potency": "inconclusive: 50.1 µM [inhibitor, partial curve, poor fit]"}
{"smiles": "Cc1ccnc(NC(=S)NC(=O)c2cccs2)c1", "Potency": "inconclusive: 50.1 µM [inhibitor, partial curve, poor fit]"}
{"smiles": "CCCNC(=O)c1nc(C)n(-c2ccc([N+](=O)[O-])cc2)n1", "activity change, negative = inhibition": "inactive: -39.4%"}
